PubChem BioAssay AID1259425 | University of Nebraska Medical Center, 2018
The deposit covers about 14,000 reagents; below is a random part of them. Not given: the time to read-out.

- Assay: 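Seek colon cancer weak points whose silencing resembles KSR1 loss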 (primary screen)
- System: HCT116 human colon cancer cells
- Knock-down reagent: siRNA pool against human genes, 50 nM siRNA
- Detection: 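After 50 nM siRNA pool, branched-DNA assay measures six marker transcripts per well, minus blank, normalised to the geometric mean of two housekeeping transcripts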
- Direction: BNIP3L mRNA: higher = more BNIP3L transcript after knockdown; NDRG1 mRNA: higher = more NDRG1 transcript after knockdown; BNIP3 mRNA: higher = more BNIP3 transcript after knockdown; ALDOC mRNA: higher = more ALDOC transcript after knockdown; ACSL5 mRNA: higher = more ACSL5 transcript after knockdown

no.	Target gene	BNIP3L mRNA, set 1	NDRG1 mRNA, set 1	BNIP3 mRNA, set 1	ALDOC mRNA, set 1	ACSL5 mRNA, set 1
1	LHCGR (luteinizing hormone/choriogonadotropin receptor)	0.116	0.0961	0.247	0.012	0.165
2	VRK1 (VRK serine/threonine kinase 1)	0.0689	0.0468	0.22	0.00209	0.0908
3	TAF13 (TATA-box binding protein associated factor 13)	0.247	0.378	0.382	0.107	0.0823
4	FBXO2 (F-box protein 2)	0.0483	0.247	0.304	0.00949	0.105
5	PIAS2 (protein inhibitor of activated STAT 2)	0.174	0.229	0.603	0.0218	0.184
6	CPS1 (carbamoyl-phosphate synthase 1)	0.109	0.152	0.329	0.0351	0.117
7	VEGFC (vascular endothelial growth factor C)	0.0663	0.258	0.269	0.0416	0.21
8	NECTIN4 (nectin cell adhesion molecule 4)	0.0924	0.298	0.276	0.00478	0.306
9	NCKAP5L (NCK associated protein 5 like)	0.141	1.19	0.173	0.0786	0.129
10	GBX2 (gastrulation brain homeobox 2)	0.19	0.196	0.481	0.0899	1.03
11	PARD3B (par-3 family cell polarity regulator beta)	0.137	0.15	0.424	0.0108	0.193
12	CDKL2 (cyclin dependent kinase like 2)	0.073	0.113	0.308	0.0071	0.641
13	MSN (moesin)	0.0726	0.0932	0.28	0.0178	0.101
14	MTMR7 (myotubularin related protein 7)	0.0277	0.0978	0.273	0.0376	0.0828
15	RND3 (Rho family GTPase 3)	0.304	0.25	0.28	0.0485	0.231
16	KCMF1 (potassium channel modulatory factor 1)	0.107	0.326	0.221	0.0252	0.193
17	PFN2 (profilin 2)	0.0968	0.332	0.171	0.0068	0.157
18	ADGRE1 (adhesion G protein-coupled receptor E1)	0.116	0.129	0.272	0.0308	0.099
19	AMOTL2 (angiomotin like 2)	0.126	0.307	0.367	0.0555	0.161
20	CLEC10A (C-type lectin domain containing 10A)	0.162	0.532	0.303	0.0575	0.255

Single entries from the list.
Under “BNIP3 mRNA, set 1”, PFN2 (profilin 2) shows 0.171
Entry of PARD3B (par-3 family cell polarity regulator beta) in “ACSL5 mRNA, set 1”: 0.193
